Construct, isoform or probe ends are uncertain for at least one entry. For part of these data: A weaker result is weaker than the reference pair of the same experiment.
Assays:
[1] = test system: insulin (human); experiment: cited
[2] = test system: insulin (human); experiment: bead-based flow cytometry; conditions: 1% human serum, no meaningful Kd
[3] = test system: VEGF; experiment: N2A2 flow-cell fluorescence

Sequence | Kd [1] | binding result [2] | binding result [3]
GGTGGTGGGGGGGGTTGGTAGGGTGTCTTC [IGA3 bt] | 10 µM | binds more weakly | 
AGCAGCACAGAGGTCAGATGAATTGGGCCCGTCCGTATGGTGGGTCCTATGCGTGCTACCGTGAA [SL-2B (displayed on flow-cell)] |  |  | binds
